# The name of at least one read-out is uncertain.
# Test system: CEM-VBL and CEM-C7 cells
# Test: LD50 in MDR positive (CEM-VBL) versus MDR negative (CEM-C7) cells
# Conditions: comparison of the two cell lines
structure (smiles),measurement,value
"CC[C@]1(O)C[C@@H]2CN(CCc3c([nH]c4ccccc34)[C@@](C(=O)OC)(c3cc4c(cc3OC)N(C)[C@H]3[C@@](O)(C(=O)OC)[C@H](OC(C)=O)[C@]5(CC)C=CCN6CC[C@]43[C@@H]65)C2)C1 [Vinblastine, vinblastine]",LD50 value in CEM-VBL (MDR positive) as opposed to CEM-C7 (MDR negative),significantly higher

# Source: US9029345B2, “Selective inhibitors of translesion DNA replication” (Case Western Reserve University, priority 2005, dated 2015)
